Values from PubChem BioAssay AID686937 (Drosophila RNAi Screening Center, 2013).
Test: 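Knock-downs that reduce output of a secreted reporter enzyme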 (primary screen). Cell system: Drosophila S2 cells expressing secreted horseradish peroxidase. Reagent: long dsRNA against Drosophila genes. Time to read-out: about 5.5 days (5 days dsRNA, then 12 h reporter induction). Conditions: reporter expression induced after 5 days of dsRNA, read 12 h later; inducer not stated. Read-out: 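Chemiluminescent measurement of peroxidase in the medium 12 h after reporter induction, following 5 days of dsRNA, given as a z-score per plate; higher means more secretion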. Scale: z-score: higher = more reporter secreted into medium.
In all, the deposit lists about 23,000 reagents; shown is a random part of those that have a named target and a result. 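Reduced-secretion tags in replicate 1 do not always agree with the z-scores; no criterion for assigning the tags was given.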 A plus sign joins genes that one reagent is predicted to hit. Not stated in the record: the amount of reagent.

| gene knocked down | amplicon | z-score, replicate 1 | z-score, replicate 2 | z-score, replicate 3 | z-score, replicate 4 | phenotype, replicate 1 |
| --- | --- | --- | --- | --- | --- | --- |
| Scm (Sex comb on midleg) | DRSC16853 | 0.16 | 0.23 | – | – | – |
| CG10752 | DRSC09799 | 0.31 | 0.21 | – | – | – |
| Zaf1 (ZAD and Architectural Function 1) | DRSC16121 | 0.28 | 0.55 | – | – | – |
| Cec2 (Cecropin 2) | DRSC21885 | 0.35 | -0.05 | – | – | – |
| CG32591 | DRSC19063 | -0.48 | -0.48 | – | – | – |
| CG9427 | DRSC16490 | 0.53 | 0.52 | – | – | – |
| eg (eagle) | DRSC11885 | 0.23 | 0.48 | – | – | – |
| CG42582 (retired record) | DRSC20675 | -0.64 | -0.08 | – | – | – |
| CG42857 | DRSC12750 | 0.53 | 0.5 | – | – | – |
| Strump (Strumpellin) | DRSC09872 | 0.21 | 0.2 | – | – | – |
| CG7518 | DRSC16253 | 0.46 | 0.44 | – | – | – |
| RpL30 (Ribosomal protein L30) | DRSC02087 | -1.76 | -3.7 | – | – | reduced secretion |
| Suv3 (Suv3 helicase) | DRSC12335 | 0.24 | 0 | – | – | – |
| Sirt2 (Sirtuin 2) | DRSC15714 | 0.19 | 0.34 | – | – | – |
| CG11357 | DRSC08183 | 0.37 | 0.35 | – | – | – |
| par-1 | DRSC05792 | -2.98 | -3.07 | – | – | reduced secretion |
| par-1 | DRSC06098 | 0.23 | 0.33 | – | – | – |
| par-1 | DRSC06616 | 0.06 | 0.35 | – | – | – |
| par-1 | DRSC07660 | 0.55 | 0.39 | – | – | – |
| par-1 | DRSC07661 | 0.31 | 0.2 | – | – | – |
| CG34320 (retired record) | DRSC17682 | 0.17 | -0.15 | – | – | – |
| CG30056 | DRSC21752 | -0.62 | -0.85 | – | – | reduced secretion |
| CG8160 | DRSC07086 | 0.09 | 0.42 | 0.49 | 0.24 | – |
| CG8160 | DRSC21434 | 0.23 | -0.57 | – | – | – |

Ordered by “z-score, replicate 2” (descending): 4 of the entries above.
| gene knocked down | amplicon | z-score, replicate 1 | z-score, replicate 2 | z-score, replicate 3 | z-score, replicate 4 | phenotype, replicate 1 |
| --- | --- | --- | --- | --- | --- | --- |
| par-1 | DRSC07660 | 0.55 | 0.39 | – | – | – |
| par-1 | DRSC06616 | 0.06 | 0.35 | – | – | – |
| par-1 | DRSC06098 | 0.23 | 0.33 | – | – | – |
| par-1 | DRSC07661 | 0.31 | 0.2 | – | – | – |

Continued:
| gene knocked down | amplicon | z-score, replicate 1 | z-score, replicate 2 | z-score, replicate 3 | z-score, replicate 4 | phenotype, replicate 1 |
| --- | --- | --- | --- | --- | --- | --- |
| phtm (phantom) | DRSC20237 | -1.21 | -0.57 | – | – | – |
| CG42266 | DRSC21577 | 0.06 | 0.8 | – | – | – |
| CG42266 | DRSC21957 | 1.09 | 1.24 | – | – | – |
| Paf-AHalpha (Platelet-activating factor acetylhydrolase alpha) | DRSC20267 | 0.27 | 0.07 | – | – | – |
| Wsck | DRSC13682 | 0.05 | 0.34 | – | – | – |
| CG30053 | DRSC07260 | 0.36 | 0.18 | – | – | – |
| CG4161 | DRSC01930 | -0.1 | 0.17 | – | – | – |
| Ptp69D (Protein tyrosine phosphatase 69D) | DRSC11258 | 0.28 | 0.46 | – | – | – |
| CG15861 | DRSC04274 | 0.31 | -0.29 | – | – | – |
| BomS5 (Bomanin Short 5) | DRSC22306 | -0.14 | -0.38 | – | – | – |
| Claspin | DRSC08308 | 0.76 | 0.6 | – | – | – |
| CRMP (Collapsin Response Mediator Protein) | DRSC12073 | -0.91 | -0.07 | – | – | – |
| CRMP (Collapsin Response Mediator Protein) | DRSC12345 | 0.24 | -0.03 | – | – | – |
| CG34370 | DRSC03913 | 0.41 | 0.15 | – | – | – |
| CG34370 | DRSC04142 | 0.2 | 0.25 | – | – | – |
| CG34370 | DRSC04143 | 0.28 | 0.38 | – | – | – |
| CG34370 | DRSC04144 | 0.29 | 0.39 | – | – | – |
| CG32820 + CG17450 + CG32819 | DRSC21803 | -0.92 | 1.37 | – | – | – |
| CG32820 + CG17450 + CG32819 | DRSC22812 | 0.46 | 0.03 | – | – | – |
| CG3603 | DRSC18317 | 0.25 | 0.31 | – | – | – |
| CG12288 | DRSC02155 | 0.36 | 0.1 | – | – | – |
| CG17028 | DRSC10239 | 0.3 | 0.29 | – | – | – |
| CG13800 (retired record) | DRSC08334 | 0.26 | 0.23 | – | – | – |
| Pka-C2 (Protein kinase, cAMP-dependent, catalytic subunit 2) | DRSC16790 | -0.18 | -0.61 | – | – | – |
| CG18269 | DRSC02660 | 0 | 0.04 | – | – | – |
| pths (porthos) | DRSC03171 | -1.76 | -0.56 | – | – | reduced secretion |
| ghi (ghiberti) | DRSC08985 | -7.14 | 0.1 | 0.39 | -0.6 | reduced secretion |
| GstT1 (Glutathione S transferase T1) | DRSC06243 | 0.22 | 0.27 | – | – | – |
| acj6 (abnormal chemosensory jump 6) | DRSC20304 | -0.05 | 0.18 | – | – | – |
| CR40354 (pseudo) | DRSC20923 | -0.97 | -0.84 | – | – | – |
| CG17264 | DRSC00500 | -0.06 | 0.25 | – | – | – |
| AttB (Attacin-B) | DRSC06734 | 0.17 | 0.34 | – | – | – |
